Reference: patent publication US20220275080A1
Results are given in words; binding and its absence hold for the method and conditions named. Some binding calls cover weakened binding; strength is not graded here.

T1: Lrig-1 protein expressed on the surface of L cells (leucine-rich and immunoglobulin-like domains 1) (human) (UniProt Q96JA1)
T1 sequence: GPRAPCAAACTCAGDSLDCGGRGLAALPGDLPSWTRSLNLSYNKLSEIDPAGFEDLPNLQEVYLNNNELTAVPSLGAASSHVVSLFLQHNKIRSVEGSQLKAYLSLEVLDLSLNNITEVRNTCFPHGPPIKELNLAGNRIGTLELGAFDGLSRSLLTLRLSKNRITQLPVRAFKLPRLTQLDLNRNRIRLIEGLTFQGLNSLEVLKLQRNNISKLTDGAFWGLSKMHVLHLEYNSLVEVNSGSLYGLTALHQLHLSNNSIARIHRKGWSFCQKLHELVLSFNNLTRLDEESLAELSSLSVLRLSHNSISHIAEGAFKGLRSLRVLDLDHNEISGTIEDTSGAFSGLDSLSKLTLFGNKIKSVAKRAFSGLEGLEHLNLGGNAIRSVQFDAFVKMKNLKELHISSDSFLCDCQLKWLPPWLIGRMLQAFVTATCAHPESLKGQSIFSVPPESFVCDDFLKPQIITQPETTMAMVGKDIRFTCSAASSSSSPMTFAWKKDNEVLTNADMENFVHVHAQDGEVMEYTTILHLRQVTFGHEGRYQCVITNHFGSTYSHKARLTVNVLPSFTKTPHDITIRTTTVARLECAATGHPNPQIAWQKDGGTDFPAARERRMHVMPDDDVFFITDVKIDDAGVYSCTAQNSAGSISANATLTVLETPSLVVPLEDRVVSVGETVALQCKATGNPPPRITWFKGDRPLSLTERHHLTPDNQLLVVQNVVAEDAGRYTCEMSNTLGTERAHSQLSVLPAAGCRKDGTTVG

B1: A7 clone, Lrig-1 protein-specific monoclonal antibody (Production Example 1) (antibody, mouse IgG2a, V domains shown)
VH: EVQLLESGGGLVQPGGSLRLSCAASGFTFSGYDMSWVRQAPGKGLEWVSLIYPDSGNKYYADSVKGRFTISRDNSKNTLYLQMNSLRAEDTAVYYCARDAGLSWAGAFDYWGQGTLVTVSS
VL: QSVLTQPPSASGTPGQRVTISCSGSSSNIGSNYVTWYQQLPGTAPKLLIYSDSHRPSGVPDRFSGSKSGTSASLAISGLQSEDEADYYCGSWDYSLSAYVFGGGTKLTVLR
B2: C8 clone, Lrig-1 protein-specific monoclonal antibody (Production Example 2) (antibody, mouse IgG2a, V domains shown)
VH: EVQLLESGGGLVQPGGSLRLSCAASGFTFSNYYMSWVRQAPGKGLEWVSGISPGDSSTYYADSVKGRFTISRDNSKNTLYLQMNSLRAEDTAVYYCAKGLYSNPNEPFDYWGQGTLVTVSS
VL: QSVLTQPPSASGTPGQRVTISCTGSSSNIGSNYVSWYQQLPGTAPKLLIYDDSQRPSGVPDRFSGSKSGTSASLAISGLRSEDEADYYCGTWDYSLNGYVFGGGTKLTVLR
B3: E7 clone, Lrig-1 protein-specific monoclonal antibody (Production Example 3) (antibody, mouse IgG2a, V domains shown)
VH: EVQLLESGGGLVQPGGSLRLSCAASGFTFSSYDMSWVRQAPGKGLEWVSGISPDGSNIYYADSVKGRFTISRDNSKNTLYLQMNSLRAEDTAVYYCAKVGLRCRYEACSYAYGMDVWGQGTLVTVSS
VL: QSVLTQPPSASGTPGQRVTISCSGSSSNIGSNYVSWYQQLPGTAPKLLIYSDSHRPSGVPDRFSGSKSGTSASLAISGLRSEDEADYYCATWDSSLNGYVFGGGTKLTVLR
B4: G3 clone, Lrig-1 protein-specific monoclonal antibody (Production Example 4) (antibody, mouse IgG2a, V domains shown)
VH: EVQLLESGGGLVQPGGSLRLSCAASGFTFSNYDMSWVRQAPGKGLEWVSSISPSSGSIYYADSVKGRFTISRDNSKNTLYLQMNSLRAEDTAVYYCAKDLDAFWRPSFDYWGQGTLVTVSS
VL: QSVLTQPPSASGTPGQRVTISCTGSSSNIGNNNVNWYQQLPGTAPKLLIYSDSHRPSGVPDRFSGSKSGTSASLAISGLRSEDEADYYCGSWDDSLSAYVFGGGTKLTVLR

Target: T1, Lrig-1 protein expressed on the surface of L cells (leucine-rich and immunoglobulin-like domains 1) (human)
Test: FACS on L cells stably expressing Lrig-1, eFluor 670 anti-mouse secondary antibody

binding, binds:
B1
B2
B3
B4
